Test results published in PubChem BioAssay AID1347421 (Sanford-Burnham Center for Chemical Genomics, 2020).
Whole data set: some 1,500 compounds, median “activity” near 2, cut for the lowest 2% near -18. The list shows a part of the results. Activity calls are given as the source filed them.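 How the source made its calls: active means inhibition of at least 40% at 10 µM; inconclusive means no clear call, values can overlap the other calls; inactive means the rest.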

By UniProt entry, the sequences of proteins in these tests, tags left out. Where a name states a change or a piece, a line headed by the entry shows the natural chain unless it says otherwise.
UniProt O00391: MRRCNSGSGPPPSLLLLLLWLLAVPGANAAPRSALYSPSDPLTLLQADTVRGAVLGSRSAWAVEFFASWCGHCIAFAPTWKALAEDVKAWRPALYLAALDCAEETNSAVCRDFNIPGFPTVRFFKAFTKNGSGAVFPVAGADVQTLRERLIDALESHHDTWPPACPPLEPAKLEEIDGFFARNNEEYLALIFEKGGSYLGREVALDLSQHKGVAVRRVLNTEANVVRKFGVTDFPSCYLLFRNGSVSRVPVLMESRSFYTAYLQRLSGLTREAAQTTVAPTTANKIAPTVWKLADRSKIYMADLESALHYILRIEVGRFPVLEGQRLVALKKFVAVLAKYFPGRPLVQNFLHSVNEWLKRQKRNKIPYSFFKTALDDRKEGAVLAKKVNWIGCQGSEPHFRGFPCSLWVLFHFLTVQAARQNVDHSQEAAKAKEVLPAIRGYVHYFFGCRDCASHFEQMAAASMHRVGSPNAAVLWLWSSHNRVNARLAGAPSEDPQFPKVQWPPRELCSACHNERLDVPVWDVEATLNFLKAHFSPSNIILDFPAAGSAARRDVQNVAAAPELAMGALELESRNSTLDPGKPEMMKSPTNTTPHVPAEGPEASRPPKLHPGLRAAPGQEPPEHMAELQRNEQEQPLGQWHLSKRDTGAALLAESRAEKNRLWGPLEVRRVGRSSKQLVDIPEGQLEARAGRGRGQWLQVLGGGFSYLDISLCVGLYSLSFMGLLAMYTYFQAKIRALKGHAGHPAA

Molecular target: Sulfhydryl oxidase 1 (Homo sapiens) (UniProt O00391)
Experiment: human QSOX1 sulfhydryl oxidase inhibition – biochemical, ROS-Glo luminescence, single concentration, confirmation (AID 1347421);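 further: 0% = DMSO wells with enzyme and 100% = wells lacking QSOX1 enzyme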
Conditions: recombinant hQSOX1, RNase A substrate, ROS-Glo H2O2 luminescence; at 10 µM

Structure (SMILES) | activity
O=C1N(Cc2ccccc2F)CCCC12CCN(Cc1ncc[nH]1)C2 (stereo not given) | 7%
Cn1nc2c(c1NC(=O)Cn1ncc3cccnc31)CCC2 | 4.2%
Cc1nc2cc(C(=O)NC3CCCN(c4ncccn4)C3)ccc2s1 (stereo not given) | 6.6%
Clc1ccc(Cn2nnc(-c3ccncc3)n2)cc1Cl | 9%
CCCCS(=O)(=O)N1CCN(c2ccc(C)cc2)C(C)C1 (stereo not given) | 6.6%
Cc1nc(C)c(CN2CCOC(CC3CCCCC3)C2)nc1C (stereo not given) | 4.5%
O=C(c1ccsc1)N1CCC2(CCCN(CCC3CCCCC3)C2=O)C1 (stereo not given) | inactive: -4.3%
CCOc1ccc2nc(CN3CCN(C4CCCCC4)C(CCO)C3)ccc2c1 (stereo not given) | 4.2%
CCCC(C)c1n[nH]c2c1CN(C(=O)CCn1c(=O)[nH]c3ccccc31)CC2 (stereo not given) | 6.2%
COC(=O)c1ccc(N2C[C@H]3OC(=O)N(CCc4ccccn4)[C@H]3C2)nc1 | 6%
O=c1cc(N2CCNCC2)cnn1CCOCc1ccccc1 | 5.2%
COc1cccc(CCNC(=O)CCc2nnc(-c3ccc4c(c3)OCO4)o2)c1 | 2.6%
CN(C)c1ncc(CN2CCc3onc(-c4ccccc4F)c3C2)s1 | inactive: -3.9%
CCN1CCCC1CN(CC1CCN(CCOC)CC1)C(=O)CCc1scnc1C (stereo not given) | inactive: -2.1%
CC(C)c1cc(C(=O)N2CCCC(CO)(CCc3ccccc3)C2)on1 (stereo not given) | 3.2%
Cc1oc(-c2cccs2)nc1CN(C)Cc1ccc2nonc2c1 | inactive: -5.9%
COc1cccc(OC)c1C(=O)NC1CC2CCC1C2 (stereo not given) | inactive: -9.8%
O=C(CN1CC(c2ccccc2)CC1=O)N1CCC(N2CCOCC2)CC1 (stereo not given) | 0.3%
CCn1cc(CN2CCCC(N(C)CCc3ccc(OC)c(OC)c3)C2)cn1 (stereo not given) | 3.9%
OCc1ccc(OCCOc2cccc3cccnc23)cc1 | 17.5%
O=c1c2c3c(sc2ncn1Cc1nn[nH]n1)CCC3 | 2.7%
Cc1ccc(-c2n[nH]c(-c3ccncc3)n2)cc1 | 8.8%
COCCCNc1ccc(C(F)(F)F)cn1 | 3.7%
Clc1cccc(N2CCN(C3CCCN(CC4CC4)C3)CC2)c1 (stereo not given) | 3.7%

Structure (SMILES) | activity
O=C(CCC1CCCN(C(=O)c2ccc[n+]([O-])c2)C1)NCc1ccc(F)c(F)c1 (stereo not given) | 2.4%
COc1cccc(CNC2CC(=O)N(CCc3ccc(F)cc3)C2)c1 (stereo not given) | 0.1%
O=C(NCc1ccccc1)N1CCN(CCO)CC1 | 2.5%
COc1ccc(CCN2CC(NC(=O)c3scnc3C)CC2=O)cc1 (stereo not given) | inactive: -3.6%
Cn1cc(CCNCc2ccccc2OCC(O)CN2CCSCC2)cn1 (stereo not given) | 2.1%
CC1CCc2c(sc3nc(SCC(=O)N4CCOCC4)[nH]c(=O)c23)C1 (stereo not given) | inactive: -16.6%
COc1ccc(S(=O)(=O)N2CCCC2)cc1N(C)S(C)(=O)=O | inactive: -11%
CN(C)CC(=O)NC1CC(=O)N(Cc2ccccc2C(F)(F)F)C1 (stereo not given) | 1%
COc1cc2c(cc1OC)CN(C1CCCN(C(=O)CSc3nncn3C)C1)CC2 (stereo not given) | 5.4%
COc1cc(C(=O)Nc2ccc(N3CCN(C)CC3)c(Cl)c2)cc(OC)c1OC | inactive: -12.8%
CC(C)OCCNC(=O)c1cc(COc2cccc3cccnc23)on1 | 2.2%
CS(=O)(=O)c1ncc(CO)n1Cc1ccccc1 | inactive: -4.5%
O=C(NCC(=O)N1CCN(c2ccccc2)CC1)c1cccs1 | inactive: -14%
CN(CCc1ccccn1)c1ncccc1CNC1CSCCSC1 | inactive: -4%
CN(Cc1cccc(-n2cccn2)c1)CC1(O)CCCN(CC2CC2)C1=O (stereo not given) | 4%
CC(C)CCn1c(CN(C)Cc2ccncn2)cnc1S(=O)(=O)C(C)C | 4%
COCc1ccc(CN2CCCC(Nc3ccc(F)c(F)c3)C2)o1 (stereo not given) | inactive: -2.5%
NCc1ccccc1SC1=[C+]C=C[C+]=C1CN1CCOCC1 | inactive: -11.3%
CCCSc1ncc(Cl)c(C(=O)NCc2ccccc2)n1 | 2.8%
Cc1cc(S(=O)(=O)NC2CC(=O)N(CC(C)(C)C)C2)c(C)s1 (stereo not given) | 9.9%
CC(=O)N1CCN(Cc2cccc(OCC(O)CN(C)C3CCCCC3)c2)CC1 (stereo not given) | 7.3%
O=C(Nc1cc(Cl)ccc1Cl)N1CCN(C(=O)C2CCCO2)CC1 (stereo not given) | inactive: -2.6%
CCn1ccnc1CNC(=O)CC1C(=O)NCCN1CCCc1ccccc1 (stereo not given) | 5.2%
Cc1n[nH]c(C)c1CCCN(C)CC1(c2cccc(F)c2)CCOC1 (stereo not given) | 7.1%

Structure (SMILES) | activity
COc1cc(CN(C)C)ccc1OCC(O)CN(C)C1CCCCC1 (stereo not given) | inactive: -3.4%
c1ccc(CC2CN(Cc3cnc(N4CCCC4)s3)CCO2)cc1 (stereo not given) | 5.1%
Cc1nc(NC(=O)N2CCCC2Cc2cccnc2)nn1C(C)C (stereo not given) | 5.1%
O=C1CCCN1CCCNCc1ccccc1OCC(O)CN1CCCCC1 (stereo not given) | 8.7%
O=C(Nc1ccc(S(=O)(=O)N2CCCCCC2)cc1)N1CCCCC1 | inactive: -15.7%
CC(Cc1cnccn1)NC(=O)CCc1nnc(CCC2CCCCC2)o1 (stereo not given) | inactive: -3.2%
CSc1ncc(CN2CCCC(C(=O)c3cccc(OC(C)C)c3)C2)cn1 (stereo not given) | 8.6%
O=C1CC(C(=O)N2CCC(CO)(Cc3ccccc3)CC2)CN1Cc1ccncc1 (stereo not given) | inactive: -2%
Cn1ncc(N2CCN(C(=O)NC3CCCCCC3)CC2)cc1=O | 3%
O=C(c1ccc(-c2ccccc2)c(F)c1)C1CCCN(C(=O)CCc2cnccn2)C1 (stereo not given) | 9.5%
COC(=O)c1ccccc1NC(=O)C1CCCN(S(C)(=O)=O)C1 (stereo not given) | 0.4%
O=C1CCC(C(=O)N2CCN(CC3CCCC3)CC2)CN1Cc1ccccn1 (stereo not given) | inactive: -1.9%
CCN1CCN(CC(O)COc2cccc(CN(CC)Cc3ccncc3)c2)CC1 (stereo not given) | 5.2%
CC(C)(C)NC(=O)COc1cc(N2CCOCC2)c2ccccc2c1Cl | inactive: -9.5%
Cn1cnc2cc(NC(=O)C3CCCCC3)ccc21 | 5%
CCOC(=O)c1cccc(CSc2n[nH]c(N)n2)c1 | inactive: -1.9%
O=C1CCCN1CCCC(=O)N1CCc2onc(-c3ccccc3F)c2C1 | 3.6%
O=C(CCC(F)(F)F)N1CCOC(Cc2cccc3ccccc23)C1 (stereo not given) | inactive: -1.9%
Nc1ncnc(N2CCCc3ccccc32)n1 | inactive: -0.4%
CN(C)CCN(CC1CCCN(Cc2ccccc2F)C1)C(=O)CCn1cccn1 (stereo not given) | 8.6%
COc1cc(CNCc2nccn2C)ccc1OCC(O)CN1CCSCC1 (stereo not given) | 1.1%
C=CCC(=O)N(CCOC)CC1CCCN(C2Cc3ccccc3C2)C1 (stereo not given) | 6.2%

Among those listed so far, these contain a CF3 group.
Structure (SMILES) | activity
COCCCNc1ccc(C(F)(F)F)cn1 | 3.7%
CN(C)CC(=O)NC1CC(=O)N(Cc2ccccc2C(F)(F)F)C1 (stereo not given) | 1%
O=C(CCC(F)(F)F)N1CCOC(Cc2cccc3ccccc23)C1 (stereo not given) | inactive: -1.9%

Gathered by group: those above with a tert-butyl group (two)
Structure (SMILES) | activity
Cc1cc(S(=O)(=O)NC2CC(=O)N(CC(C)(C)C)C2)c(C)s1 (stereo not given) | 9.9%
CC(C)(C)NC(=O)COc1cc(N2CCOCC2)c2ccccc2c1Cl | inactive: -9.5%
